Test results published in patent US20260209214A1, “LSD1 MODULATORS” (RECURSION PHARMACEUTICALS, INC., priority 2022, published 2026).
The structures given here were assigned with low confidence; some may be wrong.

Target: Recombinant human LSD1 (Homo sapiens, UniProt O60341)
Experiment: LSD1 inhibition assay (HTRF LSD1 Histone H3K4 mono-demethylation assay, me1->me0)
Format: biochemical
Details: read-out: LSD1 inhibition IC50 (nM range), 20 nM recombinant human LSD1, 95 nM H3K4(me1) biotinylated peptide, 15 min preincubation, 60 min at 25° C.
Protocol: LSD1 biochemical activity was measured using the HTRF® LSD1 Histone H3K4 mono-demethylation assay (me1->me0). Briefly, the enzymatic buffer was prepared by addition of 50 mM Tris-HCl (Sigma cat #T2663-IL), 50 mM NaCl (ThermoFisher cat #AM9759) and 0.01% Tween 20 (ThermoFisher cat #J20605.AP) in distilled water (final pH 8.5). This buffer was supplemented with 10 μM FAD (Fisher Scientific cat #11411838) and 1 mM DTT (Sigma cat #D0632). For the assay, H3K4(me1) biotinylated peptide substrate (Anaspec, cat #64355) was added to provide a final assay concentration of 95 nM. The streptavidin-XL665 (Cisbio cat #610SAXLA) and H3K4 me0-Eu(K) antibody-cryptate (Cisbio, cat #61 KAOKAD) detection reagents were mixed according to the manufacturer's instructions. Test compounds were diluted in DMSO in a series of 10 semi-log step doses; 10 nL of each compound dose were dispensed in 384 well plates. Recombinant human LSD1 was diluted into enzymatic buffer to provide a final assay concentration of 20 nM and added to the tested compounds for 15 minutes. The reaction was started by addition of the substrate and incubated at 25° C. for 60 minutes. The detection reagents were added, and the plate was incubated in the dark for 90 minutes. Fluorescence was measured on an Envision 2103 plate reader with optical setup for […] in the HTRF mode. The ratio of acceptor and donor emission signals was calculated for each well. Percent inhibition values were calculated from the HTRF ratios at different doses and fitted to a 4-parameter logistic curve to determine IC50 values. […]

Row | Structure (SMILES) | IC50
1 | N#Cc1ccc(-c2cccc(CC3CNCCO3)c2C2CCCC2)cc1 (stereo not drawn) | 100 to 1000 nM
2 | Cn1cc2cc(-c3ccc(CN4[C@@H]5CC[C@H]4[C@@H](N)C5)cc3-c3ccc(C#N)c(F)c3)ccc2n1 | 10 to 25 nM
3 | N#Cc1ccc(-c2cccc(CN3CCC4(CCN4)C3)c2Cl)cc1F (stereo not drawn) | 100 to 1000 nM
